# Some of the results follow.
# Target: T1, OsSMF1 (Oryza sativa, UniProt Q6ZLB0 1-436)
# T1 sequence: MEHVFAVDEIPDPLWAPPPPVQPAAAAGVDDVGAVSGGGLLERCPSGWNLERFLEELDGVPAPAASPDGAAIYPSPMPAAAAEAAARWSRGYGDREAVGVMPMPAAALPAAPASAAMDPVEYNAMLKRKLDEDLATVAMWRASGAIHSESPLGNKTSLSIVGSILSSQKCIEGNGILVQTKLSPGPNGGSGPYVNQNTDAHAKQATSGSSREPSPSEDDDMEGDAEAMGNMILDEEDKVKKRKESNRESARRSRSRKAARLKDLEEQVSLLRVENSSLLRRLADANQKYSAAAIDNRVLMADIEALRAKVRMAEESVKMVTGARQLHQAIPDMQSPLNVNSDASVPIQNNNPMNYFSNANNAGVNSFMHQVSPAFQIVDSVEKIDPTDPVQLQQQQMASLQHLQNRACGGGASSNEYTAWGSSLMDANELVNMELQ
# Assay: protein-binding microarray (RPBM); PBS, 2% BSA, 51.3 ng/ul salmon testes DNA, 50 uM zinc acetate, 200 nM TF, 25 C, 1 h; high values mean tight binding
# Conditions: protein: recombinant; tags: N-terminal polyhistidine and DsRed monomer fusion (pET32a); chain copies: 2; label: CyDye5-dUTP incorporated in the synthesized complementary strand; 3' TTTTT single-stranded linker to array surface; dsDNA, one strand shown
# Summary of the method: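 A custom Agilent array was converted to double-stranded form by primer extension with Cy5-dUTP and blocked with 2% BSA. Protein at 200 nM in PBS with 2% BSA, salmon testes DNA and 50 µM zinc acetate was applied for 1 h at 25 °C, followed by washing. The proteins were polyhistidine–DsRed N-terminal fusions of transcription factors, expressed in E. coli BL21-CodonPlus and Ni–NTA-purified. The binding signal is per-feature fluorescence intensity (arbitrary units) from an Axon 4000B scanner.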
row,Sequence,binding signal
1,TGATGGTGACACACAATTACAATATTATTTGTACTTATTTCGGAGTCACCTAGTGCAG,3340 fluorescence intensity (a.u.)
2,AGCAGGATTTTCGTTACTGTTGGTTTTCAATATATATGAACGGAGTCACCTAGTGCAG,3630 fluorescence intensity (a.u.)
3,TGGGCCGGCGCAGATTGCGGTTACGTGTGGCCCATCTATACGGAGTCACCTAGTGCAG,3340 fluorescence intensity (a.u.)
4,TATGTCACTTGCACCGCCACTAGCAACCAATATCAAACCACGGAGTCACCTAGTGCAG,3820 fluorescence intensity (a.u.)
5,GCCAAAATCTTGGCACTACTAAATTTAGTAGTATAGAATTCGGAGTCACCTAGTGCAG,3660 fluorescence intensity (a.u.)
6,CCACGTCCAACTCGGACTAGAAACTAATGGAAACCCGAAACGGAGTCACCTAGTGCAG,3330 fluorescence intensity (a.u.)
7,AGGGAAGCAAAGGCCCTCCTCCACCCTAGAGCATTCTCTCCGGAGTCACCTAGTGCAG,3520 fluorescence intensity (a.u.)
8,GGATGTCATGATAATTGACTTATGACAATGTGATTATTTCCGGAGTCACCTAGTGCAG,3280 fluorescence intensity (a.u.)
9,GATTAGTTATGACGACATTTGCCAAGTTTAATCATGCATTCGGAGTCACCTAGTGCAG,4040 fluorescence intensity (a.u.)
10,TTGATTGAAATTGGAGATGATGTGACTGAAAAGTTGTGTGCGGAGTCACCTAGTGCAG,4220 fluorescence intensity (a.u.)
11,ATATTTGATTCTAACCGATCTCGCTAGCTAGCTCCTAATTCGGAGTCACCTAGTGCAG,29000 fluorescence intensity (a.u.)
12,CGTCCTGCCGGTGGCCAGACAGCGCGTTCATCGCCAAGGACGGAGTCACCTAGTGCAG,3240 fluorescence intensity (a.u.)
13,CTTCGCTCTCTTTTCCATTGCAGAGCCCTCACGCTTCCGCCGGAGTCACCTAGTGCAG,3570 fluorescence intensity (a.u.)
14,ACCCATATAATTAAGGTGCCAATGCTGCTAATACTCTCTCCGGAGTCACCTAGTGCAG,46100 fluorescence intensity (a.u.)
15,AGGTGGCCGCCACCGCCACCGCCACGCCACTCCTCTCCTCCGGAGTCACCTAGTGCAG,6990 fluorescence intensity (a.u.)
16,TCCGTTCCGTGCTCTGTGTCCCATACTCTACGGCCACGCCCGGAGTCACCTAGTGCAG,3200 fluorescence intensity (a.u.)
17,GACCCAAAATTGTAAGGGCAGAATAGTAAATTGACGTGGACGGAGTCACCTAGTGCAG,6550 fluorescence intensity (a.u.)
18,GAATACTGATCGATACTAGTCCTGCTGACCACCCTGACCACGGAGTCACCTAGTGCAG,4000 fluorescence intensity (a.u.)
19,CCTCTAATAACTGGGCTACCACGTAGATGCCACATCATTGCGGAGTCACCTAGTGCAG,18400 fluorescence intensity (a.u.)
20,AGCAATCCAGGAGGTATACGAACCAAATTCTCTCGTAATCCGGAGTCACCTAGTGCAG,18900 fluorescence intensity (a.u.)
21,CGAACCTGGACACGCATATGTTTAGGCTCATAGCTAGAATCGGAGTCACCTAGTGCAG,3230 fluorescence intensity (a.u.)

# Not a retest: an excerpt of the list.
row,Sequence,binding signal
4,TATGTCACTTGCACCGCCACTAGCAACCAATATCAAACCACGGAGTCACCTAGTGCAG,3820 fluorescence intensity (a.u.)
5,GCCAAAATCTTGGCACTACTAAATTTAGTAGTATAGAATTCGGAGTCACCTAGTGCAG,3660 fluorescence intensity (a.u.)
6,CCACGTCCAACTCGGACTAGAAACTAATGGAAACCCGAAACGGAGTCACCTAGTGCAG,3330 fluorescence intensity (a.u.)
7,AGGGAAGCAAAGGCCCTCCTCCACCCTAGAGCATTCTCTCCGGAGTCACCTAGTGCAG,3520 fluorescence intensity (a.u.)
8,GGATGTCATGATAATTGACTTATGACAATGTGATTATTTCCGGAGTCACCTAGTGCAG,3280 fluorescence intensity (a.u.)
9,GATTAGTTATGACGACATTTGCCAAGTTTAATCATGCATTCGGAGTCACCTAGTGCAG,4040 fluorescence intensity (a.u.)
10,TTGATTGAAATTGGAGATGATGTGACTGAAAAGTTGTGTGCGGAGTCACCTAGTGCAG,4220 fluorescence intensity (a.u.)
11,ATATTTGATTCTAACCGATCTCGCTAGCTAGCTCCTAATTCGGAGTCACCTAGTGCAG,29000 fluorescence intensity (a.u.)
12,CGTCCTGCCGGTGGCCAGACAGCGCGTTCATCGCCAAGGACGGAGTCACCTAGTGCAG,3240 fluorescence intensity (a.u.)
13,CTTCGCTCTCTTTTCCATTGCAGAGCCCTCACGCTTCCGCCGGAGTCACCTAGTGCAG,3570 fluorescence intensity (a.u.)
14,ACCCATATAATTAAGGTGCCAATGCTGCTAATACTCTCTCCGGAGTCACCTAGTGCAG,46100 fluorescence intensity (a.u.)
15,AGGTGGCCGCCACCGCCACCGCCACGCCACTCCTCTCCTCCGGAGTCACCTAGTGCAG,6990 fluorescence intensity (a.u.)

# (list continues)

row,Sequence,binding signal
1,CCGGCGCCACCAGCTTCCCGCTCGTCATCAACAGCGCCGCCGGAGTCACCTAGTGCAG,4320 fluorescence intensity (a.u.)
2,GGCGGCGACCTCGGGGTGCACCTCAAGCTCAAGCTCTCCTCGGAGTCACCTAGTGCAG,35200 fluorescence intensity (a.u.)
3,TCTCAGTGCCGGTGTGGGATCGTGGTTGTGTGTGTGATTGCGGAGTCACCTAGTGCAG,3740 fluorescence intensity (a.u.)
4,CACTGCAAGCGAGGAAAATTTCCACAGATCACCAGTGAATCGGAGTCACCTAGTGCAG,4530 fluorescence intensity (a.u.)
5,GCGCCGTCGCCCGCGACGTGCTGGTCCCGTCATCAGCGCGCGGAGTCACCTAGTGCAG,4010 fluorescence intensity (a.u.)
6,ACCTGTTGTACTTAGTTACGGCGACACGTTTGCATCAGGCCGGAGTCACCTAGTGCAG,6860 fluorescence intensity (a.u.)
7,AGCTCTCTCTCTCTCGGCTCGGCTCAGCTCGGCGCGTGCACGGAGTCACCTAGTGCAG,3850 fluorescence intensity (a.u.)
8,TGAGTCGGTATTAGAGGGAGAGCTGACCTGCATTAAGTTTCGGAGTCACCTAGTGCAG,3480 fluorescence intensity (a.u.)
9,TTTAATTGTTCTGCGATTACGGTAGAAATAGATCGGGCTTCGGAGTCACCTAGTGCAG,3210 fluorescence intensity (a.u.)
10,ATGAGCCCATCCGTCACTGCCACGGTTCCATCAACATCTACGGAGTCACCTAGTGCAG,3590 fluorescence intensity (a.u.)
11,GTATGGGTTCGAGGAGTGATGTGGTGATGGGCAAACCCATCGGAGTCACCTAGTGCAG,3300 fluorescence intensity (a.u.)
12,GTCAAGGAGTTCAAGGGAGGAAGAGGACAACCCACTCCAACGGAGTCACCTAGTGCAG,3330 fluorescence intensity (a.u.)
13,CACCGGATAGAGAGAGAGAGGAGTCAGCGCACGCGCCGAGCGGAGTCACCTAGTGCAG,4020 fluorescence intensity (a.u.)
14,ACTGCATCGTTTTGTTAAAACTAGTATCCAAGTGTCATTGCGGAGTCACCTAGTGCAG,3220 fluorescence intensity (a.u.)
15,CCTCTTCCTCCTCCTCCTCCTCCCCAAAGGTGCAATGCCCCGGAGTCACCTAGTGCAG,18000 fluorescence intensity (a.u.)
16,CCTACCCACCAGTAATAAAGCACCACGTGTCGCGAGGGTACGGAGTCACCTAGTGCAG,9700 fluorescence intensity (a.u.)
17,GTCGGTGATAACAACATCCACATCATCGTTGTATTACGTGCGGAGTCACCTAGTGCAG,11700 fluorescence intensity (a.u.)
18,AACTTTGCTTTGCAAAACATGTCATCATAAACTACTTCGCCGGAGTCACCTAGTGCAG,5310 fluorescence intensity (a.u.)
19,CGCTGCAAATCCCAATCGGCTCTCACACCGACACGTGGGCCGGAGTCACCTAGTGCAG,9110 fluorescence intensity (a.u.)
20,GCCGATTGCCACTCTGTTCTTAGCGTTTCTTGCGTTAGATCGGAGTCACCTAGTGCAG,3560 fluorescence intensity (a.u.)
21,GTGGTTAACGAAGACGATGACGTGGAGTTGCAGGCGTTCACGGAGTCACCTAGTGCAG,14400 fluorescence intensity (a.u.)
